Laboratory results: US20210343946A1, “INFRARED ABSORBERS, INFRARED ABSORBING/BLOCKING FILMS AND PHOTOELECTRIC DEVICES AND ORGANIC SENSORS AND ELECTRONIC DEVICES” (Samsung Electronics Co., Ltd., priority 2020, published 2021)

Experiment: Solubility and thin film characteristics
Format: physicochemical
Details: spin-coated from chloroform, 800 rpm 60 s and 400 rpm 5 s; surface profiler

SMILES	Thin film thickness
CCCCCCOc1cc(-c2c3c(c(-c4cc(OCCCCCC)c(-c5cc6c(s5)c5sc(CCCCCC)cc5n6CCCCCC)s4)c4nsnc24)N=[Se]=N3)sc1-c1cc2c(s1)c1sc(CCCCCC)cc1n2CCCCCC [Synthesis Example 1]	70 nm
CCCCCCOc1cc(-c2c3c(c(-c4cc(OCCCCCC)c(-c5cc6c(s5)c5sc(CCCCCC)cc5n6CCCCCC)s4)c4n[se]nc24)N=[Se]=N3)sc1-c1cc2c(s1)c1sc(CCCCCC)cc1n2CCCCCC [Synthesis Example 5]	50 nm
CCCCCCOc1cc(-c2c3nsnc3c(-c3cc(OCCCCCC)c(-c4cc5c(s4)c4sc(CCCCCC)cc4n5CCCCCC)s3)c3nc4c5ncccc5c5cccnc5c4nc23)sc1-c1cc2c(s1)c1sc(CCCCCC)cc1n2CCCCCC [Synthesis Example 3]	110 nm
CCCCCCOc1cc(-c2c3c(c(-c4cc(OCCCCCC)c(-c5cc6c(s5)c5sc(CCCCCC)cc5n6CCCCCC)s4)c4nsnc24)N=S=N3)sc1-c1cc2c(s1)c1sc(CCCCCC)cc1n2CCCCCC [Synthesis Example 2]	120 nm
CCCCCCOc1cc(-c2c3nsnc3c(-c3cc(OCCCCCC)c(-c4cc5c(s4)c4sc(CCCCCC)cc4n5CCCCCC)s3)c3nc4c5ccccc5c5ccccc5c4nc23)sc1-c1cc2c(s1)c1sc(CCCCCC)cc1n2CCCCCC [Synthesis Example 4]	80 nm
